According to paper PMC8472562 (Vaccines, 2021):
HELM strings list residues between dots; [ac] is acetyl, [am] amide, other brackets name non-standard units.

Experiment: general procedure: Fmoc solid-phase peptide synthesis; Rink amide MBHA resin; HATU/DIEA
Conditions: whole synthesis; for final HPLC purity: RP-HPLC (C4 column) and ESI-MS

With “PEPTIDE1{[ac].T.S.L.I.A.G.P.K.A.Q.V.E.A.I.Q.K.Y.I.G.A.E.L.K.K.L.I.P.N.A.S.L.I.E.N.C.T.K.A.E.L.S.K.K.K.K.[am]}$$$$V2.0” the isolated yield was 62% and the “final HPLC purity” value was 99%.

For “PEPTIDE1{[ac].T.S.L.I.A.G.P.K.A.Q.V.E.A.I.Q.K.Y.I.G.A.E.L.K.K.L.I.P.N.A.S.L.I.E.N.C.T.K.A.E.L.S.K.K.K.K.[am]}|PEPTIDE2{[ac].L.L.L.L.L.L.L.L.L.L}$PEPTIDE1,PEPTIDE2,24:R3-11:R2$$$V2.0”, the isolated yield was 50% and the “final HPLC purity” value was 99%.
